PubChem BioAssay AID720505 | Drosophila RNAi Screening Center | 2013
The screen tested about 20,000 reagents; this is a random part of those with a known target gene and a result. In the full data, about 2,100 (10%) got an active call. 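Raw plate signals without normalisation; calls rest on control-based scores that were not deposited; replicate 2 separates called from uncalled poorly.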 Not stated in the record: the amount of reagent, the time to read-out.

- Screen: 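Knock-downs that reduce calcium influx once internal stores are emptied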 (primary screen)
- Cells: Drosophila S2R+ cells
- Reagent: long dsRNA against Drosophila genes
- Conditions: thapsigargin (2 µM) in calcium-free buffer to empty internal stores, then 2 mM calcium added back
- Measured: 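Stores emptied by 2 µM thapsigargin without calcium, then 2 mM calcium re-added; fluo-4 fluorescence followed by FLIPR in 384-well plates, per-well averaged endpoint, raw; two screen passes, some wells retested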
- Scale: calcium signal and retest calcium signal: higher = more calcium entry after store depletion
- Hit rule: 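About 1500 genes called as lowering calcium entry, by varying amounts, judged against per-plate control wells with STIM1 as positive and Rho1 as negative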
- Meaning of the calls: active = called as lowering calcium entry; inactive = not called

calcium signal, replicate 1 | calcium signal, replicate 2 | retest calcium signal, replicate 1 | retest calcium signal, replicate 2 | Outcome | target | DRSC id
141 | 93.1 | – | – | inactive | CG3376 | DRSC04362
199 | 150 | – | – | inactive | Exd2 | DRSC16105
101 | 96.4 | – | – | inactive | CG13678 | DRSC10036
138 | 173 | – | – | inactive | Gpo3 | DRSC01978
162 | 191 | – | – | inactive | Osi18 | DRSC12181
133 | 118 | – | – | inactive | GNBP2 | DRSC10404
83 | 71.8 | – | – | active | CG34174 | DRSC00101
70.8 | 90.8 | – | – | active | f-cup | DRSC14139
140 | 229 | – | – | inactive | CG11050 | DRSC02125
93.5 | 150 | 8674 | 142 | inactive | tey | DRSC11042
143 | 74 | – | – | inactive | tey | DRSC21709
75.2 | 108 | – | – | inactive | CG33160 | DRSC08197
202 | 97.5 | – | – | inactive | Incenp | DRSC06116
95.3 | 212 | – | – | inactive | Incenp | DRSC21950
136 | 238 | 79.1 | 87.1 | inactive | Wwox | DRSC03030
88.2 | 155 | – | – | inactive | Wwox | DRSC22872
166 | 139 | – | – | inactive | CR11023 | DRSC00302
130 | 139 | – | – | inactive | Atg5 | DRSC18112
94.4 | 90.6 | – | – | inactive | nompC | DRSC03581
123 | 133 | – | – | inactive | Fkbp39 | DRSC16667
183 | 87.7 | – | – | inactive | Leash | DRSC15617
73.6 | 118 | – | – | inactive | Ocrl | DRSC18576
165 | 115 | – | – | inactive | CG12769 | DRSC06167
178 | 185 | – | – | inactive | Or85c | DRSC16766
157 | 206 | – | – | inactive | CG6980 | DRSC16162
76.5 | 138 | – | – | inactive | CG6012 | DRSC02921
82.4 | 121 | – | – | inactive | alphaTub84D | DRSC12623
65.8 | 97.4 | – | – | active | nSMase | DRSC08237
172 | 89.9 | – | – | inactive | CG31776 | DRSC00716
114 | 120 | – | – | inactive | plum | DRSC16054
159 | 125 | – | – | inactive | Ptx1 | DRSC16804
151 | 267 | – | – | inactive | CG46441 | DRSC15561
77.8 | 96.8 | – | – | inactive | Ak1 | DRSC10248
201 | 121 | – | – | inactive | CG18735 | DRSC04312
91.6 | 158 | – | – | inactive | CG33461 | DRSC22892
81.7 | 128 | – | – | inactive | FucTA | DRSC10733
148 | 269 | – | – | inactive | CG5382 | DRSC15786
103 | 136 | – | – | inactive | CG30334 | DRSC05345
103 | 114 | – | – | inactive | NO66 | DRSC18252
115 | 131 | – | – | inactive | CG9917 | DRSC20218
79.1 | 76.6 | – | – | inactive | Dnah3 | DRSC08513
87 | 112 | – | – | inactive | CG34164 | DRSC02837
92.8 | 185 | – | – | inactive | CG13193 | DRSC06318
146 | 117 | – | – | inactive | Dbp45A | DRSC07395
84.1 | 174 | – | – | inactive | mRpS16 | DRSC07152
156 | 119 | – | – | inactive | cue | DRSC08248
125 | 147 | – | – | inactive | CR42532 | DRSC06713
157 | 116 | – | – | inactive | Desat2 | DRSC15919
80 | 148 | – | – | inactive | CG11977 | DRSC14454
50.9 | 14370 | – | – | active | CG40583 (retired record) | DRSC20938
140 | 112 | – | – | inactive | Vmat | DRSC06961
125 | 182 | – | – | inactive | Vmat | DRSC06962
62.4 | 254 | – | – | inactive | Vmat | DRSC22223
173 | 246 | – | – | inactive | CG5539 | DRSC04510
109 | 171 | – | – | inactive | CG14655 | DRSC12241
140 | 99.7 | – | – | inactive | Ote | DRSC07498
141 | 105 | – | – | inactive | drk | DRSC07606
82.8 | 75.2 | – | – | inactive | Egfrap | DRSC09963
77.4 | 75.6 | – | – | inactive | Egfrap | DRSC09964
206 | 156 | – | – | inactive | Fak | DRSC07426
131 | 147 | – | – | inactive | mRpL9 | DRSC15678
274 | 135 | – | – | inactive | alpha4GT2 | DRSC15905

12 entries from above, sorted by “calcium signal, replicate 1”, low to high.
calcium signal, replicate 1 | calcium signal, replicate 2 | retest calcium signal, replicate 1 | retest calcium signal, replicate 2 | Outcome | target | DRSC id
79.1 | 76.6 | – | – | inactive | Dnah3 | DRSC08513
80 | 148 | – | – | inactive | CG11977 | DRSC14454
84.1 | 174 | – | – | inactive | mRpS16 | DRSC07152
87 | 112 | – | – | inactive | CG34164 | DRSC02837
92.8 | 185 | – | – | inactive | CG13193 | DRSC06318
103 | 136 | – | – | inactive | CG30334 | DRSC05345
103 | 114 | – | – | inactive | NO66 | DRSC18252
115 | 131 | – | – | inactive | CG9917 | DRSC20218
125 | 147 | – | – | inactive | CR42532 | DRSC06713
146 | 117 | – | – | inactive | Dbp45A | DRSC07395
156 | 119 | – | – | inactive | cue | DRSC08248
157 | 116 | – | – | inactive | Desat2 | DRSC15919

The listing continues.
calcium signal, replicate 1 | calcium signal, replicate 2 | retest calcium signal, replicate 1 | retest calcium signal, replicate 2 | Outcome | target | DRSC id
160 | 169 | – | – | inactive | CG8785 | DRSC07266
106 | 109 | – | – | inactive | RabGGTa | DRSC12189
148 | 122 | – | – | inactive | CG17290 | DRSC06662
111 | 197 | – | – | inactive | CG2865 | DRSC18527
111 | 204 | – | – | inactive | CG2865 | DRSC18528
137 | 116 | – | – | inactive | CG13325 | DRSC06362
156 | 145 | – | – | inactive | Lsp1gamma | DRSC08672
– | – | – | – | active | CG31262 | DRSC13216
156 | 163 | – | – | inactive | Pka-C2 | DRSC16790
131 | 172 | – | – | inactive | Pka-C2 | DRSC23310
110 | 128 | – | – | inactive | CG2608 | DRSC02709
120 | 80 | – | – | inactive | cac | DRSC19743
151 | 87.7 | – | – | inactive | cac | DRSC20354
141 | 94.4 | – | – | inactive | CG17493 | DRSC03798
181 | 129 | – | – | inactive | CG31861 | DRSC21665
121 | 115 | – | – | inactive | CG13102 | DRSC02202
77.1 | 120 | – | – | active | Vha16-5 | DRSC02986
58.8 | 79.1 | – | – | inactive | Psf3 | DRSC18216
177 | 107 | – | – | inactive | Psf3 | DRSC21487
98.1 | 122 | – | – | inactive | CG33543 | DRSC00384
83.5 | 119 | – | – | inactive | CG33543 | DRSC00385
69.7 | 97.8 | – | – | active | BthD | DRSC19395
119 | 175 | – | – | inactive | ND-24L | DRSC10650
83.8 | 84.3 | – | – | inactive | DCTN5-p25 | DRSC03525
176 | 139 | 80.4 | 95.2 | inactive | CG4554 | DRSC04473
128 | 112 | – | – | inactive | CG13137 | DRSC02234
89.7 | 100 | – | – | inactive | CG11629 | DRSC03695
168 | 123 | – | – | inactive | CG15332 | DRSC18015
150 | 129 | – | – | inactive | CG4928 | DRSC19342
130 | 94.7 | – | – | inactive | CG34435 | DRSC18086
128 | 101 | – | – | inactive | dpr12 | DRSC04814
129 | 203 | – | – | inactive | dpr12 | DRSC04863
193 | 156 | – | – | inactive | dpr12 | DRSC04892
92.3 | 108 | – | – | inactive | CG42500 | DRSC14822
85.6 | 89.3 | – | – | inactive | CG5070 | DRSC19932
70.8 | 235 | – | – | active | Efr | DRSC18322
107 | 150 | – | – | inactive | mRpS10 | DRSC15557
115 | 93.8 | – | – | inactive | Sans | DRSC06357
156 | 195 | – | – | inactive | CG14300 | DRSC14779
168 | 173 | – | – | inactive | Or22a | DRSC00764
95.8 | 144 | – | – | inactive | betaTub60D | DRSC04673
119 | 278 | – | – | inactive | betaTub60D | DRSC22218
195 | 102 | – | – | inactive | CG4660 | DRSC18378
88.1 | 9808 | – | – | inactive | CG42582 (retired record) | DRSC20675
